Test results from article PMC8715634.
No constants are given. Whether binding was seen depends on the method and setting. Binding seen in cells or lysates may run through a third protein. Some entries that bind do so weakly or less than the wild type. Sequences can lack the tags named with a protein.

T1: BVES-myc (Blood Vessel Epicardial Substance) (human) (UniProt Q8NE79)
T1 sequence: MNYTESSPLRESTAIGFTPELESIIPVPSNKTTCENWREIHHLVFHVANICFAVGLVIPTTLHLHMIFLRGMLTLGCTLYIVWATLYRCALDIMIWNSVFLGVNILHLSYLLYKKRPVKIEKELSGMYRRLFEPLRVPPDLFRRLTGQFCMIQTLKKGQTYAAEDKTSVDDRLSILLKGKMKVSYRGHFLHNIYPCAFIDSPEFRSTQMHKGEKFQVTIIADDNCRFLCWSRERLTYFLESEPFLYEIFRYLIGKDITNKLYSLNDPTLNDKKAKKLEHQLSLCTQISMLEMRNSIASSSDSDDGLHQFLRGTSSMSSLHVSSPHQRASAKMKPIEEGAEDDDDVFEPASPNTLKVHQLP

T2: POPDC2-myc (human) (UniProt Q9HBU9)
T2 sequence: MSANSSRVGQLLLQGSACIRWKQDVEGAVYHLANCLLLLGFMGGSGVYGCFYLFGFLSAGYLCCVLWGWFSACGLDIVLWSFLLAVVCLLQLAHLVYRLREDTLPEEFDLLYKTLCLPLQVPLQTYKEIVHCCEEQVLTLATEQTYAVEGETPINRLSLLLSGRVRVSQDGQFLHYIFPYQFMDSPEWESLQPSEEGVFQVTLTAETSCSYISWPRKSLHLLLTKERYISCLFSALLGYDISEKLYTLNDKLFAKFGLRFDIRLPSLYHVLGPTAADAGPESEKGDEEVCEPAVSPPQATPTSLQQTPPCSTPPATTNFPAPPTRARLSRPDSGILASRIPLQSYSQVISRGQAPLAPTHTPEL

T3: FLAG-hANO5-BioID2 (human) (UniProt Q75V66)
T3 sequence: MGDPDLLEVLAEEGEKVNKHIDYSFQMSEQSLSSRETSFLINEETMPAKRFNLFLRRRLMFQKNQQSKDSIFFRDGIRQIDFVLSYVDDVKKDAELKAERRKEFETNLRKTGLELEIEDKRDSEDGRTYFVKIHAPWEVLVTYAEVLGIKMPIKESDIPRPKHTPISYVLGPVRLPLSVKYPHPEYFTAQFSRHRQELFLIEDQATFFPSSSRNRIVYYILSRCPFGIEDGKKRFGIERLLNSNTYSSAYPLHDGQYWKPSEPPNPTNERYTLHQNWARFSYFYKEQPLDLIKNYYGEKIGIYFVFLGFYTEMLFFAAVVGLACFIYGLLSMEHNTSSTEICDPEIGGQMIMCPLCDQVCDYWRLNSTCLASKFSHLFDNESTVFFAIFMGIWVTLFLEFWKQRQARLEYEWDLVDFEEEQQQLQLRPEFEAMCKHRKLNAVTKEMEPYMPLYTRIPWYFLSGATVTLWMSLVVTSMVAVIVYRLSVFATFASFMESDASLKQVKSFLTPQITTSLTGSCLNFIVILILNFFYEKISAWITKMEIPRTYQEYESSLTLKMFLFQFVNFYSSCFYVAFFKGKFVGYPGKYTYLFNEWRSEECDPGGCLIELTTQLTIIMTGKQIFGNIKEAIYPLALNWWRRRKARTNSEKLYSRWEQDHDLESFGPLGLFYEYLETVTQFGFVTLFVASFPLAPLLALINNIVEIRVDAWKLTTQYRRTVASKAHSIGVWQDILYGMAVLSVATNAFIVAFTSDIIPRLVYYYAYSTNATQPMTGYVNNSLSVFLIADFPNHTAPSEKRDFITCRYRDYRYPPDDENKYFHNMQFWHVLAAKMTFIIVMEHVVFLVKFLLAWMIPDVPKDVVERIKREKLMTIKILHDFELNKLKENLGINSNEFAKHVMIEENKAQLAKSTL


What was measured:
[1] = target: T1, BVES-myc (Blood Vessel Epicardial Substance) (human); assay: co-IP; mapping with truncation or deletion constructs of ANO5 and BVES; BVES-myc as bait for the ANO5 fragments; transfected cells (cell line not stated); RIPA lysis buffer, 4 °C
[2] = target: T1, BVES-myc (Blood Vessel Epicardial Substance) (human); assay: co-IP; COS-1 cells co-expressing ANO5 and myc-tagged BVES or POPDC2; IP with anti-myc antibody and protein A/G agarose; RIPA lysis buffer (25 mM Tris-HCl pH 7.4, 150 mM NaCl, 1% Triton X-100), 4 °C
POPDC2-myc (human) = target: T2, POPDC2-myc (human); assay: as above
[3] = target: T3, FLAG-hANO5-BioID2 (human); assay: co-IP; C2C12 myoblasts stably expressing FLAG-hANO5-BioID2, transiently transfected with BVES-myc; IP with FLAG antibody; RIPA lysis buffer, 4 °C

Row | Binder | binding [1] | binding [2] | binding (POPDC2-myc (human)) | binding [3]
1 | ANO5 (Anoctamin 5), full-length (protein, UniProt Q75V66 1-913) MGDPDLLEVLAEEGEKVNKHIDYSFQMSEQSLSSRETSFLINEETMPAKRFNLFLRRRLMFQKNQQSKDSIFFRDGIRQIDFVLSYVDDVKKDAELKAERRKEFETNLRKTGLELEIEDKRDSEDGRTYFVKIHAPWEVLVTYAEVLGIKMPIKESDIPRPKHTPISYVLGPVRLPLSVKYPHPEYFTAQFSRHRQELFLIEDQATFFPSSSRNRIVYYILSRCPFGIEDGKKRFGIERLLNSNTYSSAYPLHDGQYWKPSEPPNPTNERYTLHQNWARFSYFYKEQPLDLIKNYYGEKIGIYFVFLGFYTEMLFFAAVVGLACFIYGLLSMEHNTSSTEICDPEIGGQMIMCPLCDQVCDYWRLNSTCLASKFSHLFDNESTVFFAIFMGIWVTLFLEFWKQRQARLEYEWDLVDFEEEQQQLQLRPEFEAMCKHRKLNAVTKEMEPYMPLYTRIPWYFLSGATVTLWMSLVVTSMVAVIVYRLSVFATFASFMESDASLKQVKSFLTPQITTSLTGSCLNFIVILILNFFYEKISAWITKMEIPRTYQEYESSLTLKMFLFQFVNFYSSCFYVAFFKGKFVGYPGKYTYLFNEWRSEECDPGGCLIELTTQLTIIMTGKQIFGNIKEAIYPLALNWWRRRKARTNSEKLYSRWEQDHDLESFGPLGLFYEYLETVTQFGFVTLFVASFPLAPLLALINNIVEIRVDAWKLTTQYRRTVASKAHSIGVWQDILYGMAVLSVATNAFIVAFTSDIIPRLVYYYAYSTNATQPMTGYVNNSLSVFLIADFPNHTAPSEKRDFITCRYRDYRYPPDDENKYFHNMQFWHVLAAKMTFIIVMEHVVFLVKFLLAWMIPDVPKDVVERIKREKLMTIKILHDFELNKLKENLGINSNEFAKHVMIEENKAQLAKSTL | binds | binds | binds | –
2 | BVES-myc (Blood Vessel Epicardial Substance) (protein, UniProt Q8NE79 1-360) MNYTESSPLRESTAIGFTPELESIIPVPSNKTTCENWREIHHLVFHVANICFAVGLVIPTTLHLHMIFLRGMLTLGCTLYIVWATLYRCALDIMIWNSVFLGVNILHLSYLLYKKRPVKIEKELSGMYRRLFEPLRVPPDLFRRLTGQFCMIQTLKKGQTYAAEDKTSVDDRLSILLKGKMKVSYRGHFLHNIYPCAFIDSPEFRSTQMHKGEKFQVTIIADDNCRFLCWSRERLTYFLESEPFLYEIFRYLIGKDITNKLYSLNDPTLNDKKAKKLEHQLSLCTQISMLEMRNSIASSSDSDDGLHQFLRGTSSMSSLHVSSPHQRASAKMKPIEEGAEDDDDVFEPASPNTLKVHQLP | – | – | – | binds
3 | ANO5, first 121 amino acids (domain or fragment, UniProt Q75V66 1-121) MGDPDLLEVLAEEGEKVNKHIDYSFQMSEQSLSSRETSFLINEETMPAKRFNLFLRRRLMFQKNQQSKDSIFFRDGIRQIDFVLSYVDDVKKDAELKAERRKEFETNLRKTGLELEIEDKR | binds | – | – | –
